This passage reports binding results from publication PMC3411835.

Amino acid sequences for entries named in this document (tags omitted). Residues count along the entry.
UniProt P15812, residues 32-388: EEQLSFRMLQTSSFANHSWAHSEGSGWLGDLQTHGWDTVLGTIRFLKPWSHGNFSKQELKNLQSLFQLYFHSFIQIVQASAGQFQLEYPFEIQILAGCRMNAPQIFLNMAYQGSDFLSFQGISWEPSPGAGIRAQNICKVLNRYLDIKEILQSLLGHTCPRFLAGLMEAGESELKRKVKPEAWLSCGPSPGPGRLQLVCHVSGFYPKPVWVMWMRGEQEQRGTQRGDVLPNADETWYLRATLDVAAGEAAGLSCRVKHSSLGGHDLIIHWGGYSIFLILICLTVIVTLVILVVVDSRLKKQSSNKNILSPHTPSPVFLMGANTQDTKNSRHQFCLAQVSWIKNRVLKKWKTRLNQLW

Assay [1] concerns the target T1, EYFP-LAPTM5 fusion protein (in M10 cells) (UniProt Q13571).
T1 sequence: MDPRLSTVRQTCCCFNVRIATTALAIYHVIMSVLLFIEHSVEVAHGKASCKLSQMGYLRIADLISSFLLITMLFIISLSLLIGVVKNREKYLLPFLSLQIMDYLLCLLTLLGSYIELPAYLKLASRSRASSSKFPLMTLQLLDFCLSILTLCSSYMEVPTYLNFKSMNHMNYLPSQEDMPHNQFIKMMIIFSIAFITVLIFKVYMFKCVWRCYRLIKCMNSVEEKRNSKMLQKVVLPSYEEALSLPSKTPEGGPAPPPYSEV
The experiment in a line: co-IP; as a2, but only the cells not treated with bafilomycin.

Assay [2] deals with T2, V5-tagged LAPTM5 (in M10 cells) (UniProt Q13571).
T2 sequence: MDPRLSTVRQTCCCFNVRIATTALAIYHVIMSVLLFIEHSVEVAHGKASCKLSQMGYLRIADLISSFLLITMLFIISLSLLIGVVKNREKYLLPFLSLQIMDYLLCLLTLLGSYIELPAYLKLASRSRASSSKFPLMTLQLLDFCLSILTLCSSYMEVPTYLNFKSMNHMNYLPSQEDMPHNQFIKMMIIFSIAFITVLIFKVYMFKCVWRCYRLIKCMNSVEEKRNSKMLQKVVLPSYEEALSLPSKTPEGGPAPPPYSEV
Described as above.

Assay [3] has as its target T1, EYFP-LAPTM5 fusion protein (in M10 cells). The experiment in a line: co-IP; cleared lysates of transfected M10 cells, treated or not for 5 h with bafilomycin; immunoprecipitation with anti-CD1e mAb 20.6 or anti-GFP/anti-V5 antibodies, protein A-Sepharose, western blot with anti-tag antibodies or anti-CD1e mAb VIIC7.
The target of assay [4] is T2, V5-tagged LAPTM5 (in M10 cells). Described as above.
The target of assay [5] is CD1e (transgenic, expressed in M10 melanoma cells) (human) (UniProt P15812). The assay is described as above.
Assay [6] has as its target CD1e-mCherry fusion protein (in M10 cells) (human) (UniProt P15812). The assay is described as above.
Assay [7] deals with CD1e (transgenic, expressed in M10 melanoma cells) (human) (UniProt P15812). The experiment in a line: co-IP; M10 cells labelled 45 min with 35S and chased 0-4 h in the presence of bafilomycin; 1% Triton X100 lysate; immunoprecipitation with mAb 20.6, Endo F, SDS-PAGE, autoradiography.
The target in assay [8] is CD1e (expressed in transfected HEK293 cells) (human) (UniProt P15812). Put plainly: co-IP; transfected HEK293 cells treated with bafilomycin; data not shown.
For assay [9], the target named is CD1e (transgenic, expressed in M10 melanoma cells) (human) (UniProt P15812). Put plainly: co-IP; as a2, but only the cells not treated with bafilomycin.

These are yes or no findings as the source states them, for the method shown. In cells and extracts the contact can be indirect. Some binding calls cover weakened binding; strength is not graded here. Where a sequence is shown, tags or fusion partners need not be part of it.

As to “CD1e (transgenic, expressed in M10 melanoma cells) (from UniProt P15812 32-388)”, the binding entry was “no binding (condition: cells not treated with bafilomycin)” in [1], “no binding (condition: cells not treated with bafilomycin)” in assay [2], “binds” in assay [3] and “binds” in [4].

B1: EYFP-LAPTM5 fusion protein (in M10 cells) (protein, UniProt Q13571 1-262)
chain: MDPRLSTVRQTCCCFNVRIATTALAIYHVIMSVLLFIEHSVEVAHGKASCKLSQMGYLRIADLISSFLLITMLFIISLSLLIGVVKNREKYLLPFLSLQIMDYLLCLLTLLGSYIELPAYLKLASRSRASSSKFPLMTLQLLDFCLSILTLCSSYMEVPTYLNFKSMNHMNYLPSQEDMPHNQFIKMMIIFSIAFITVLIFKVYMFKCVWRCYRLIKCMNSVEEKRNSKMLQKVVLPSYEEALSLPSKTPEGGPAPPPYSEV
Consider B1, for which the binding entry in [5] and in assay [6] was “binds” each time.

B2: lysosomal-associated transmembrane protein 5 (LAPTM5), endogenous in M10 cells (protein, UniProt Q13571 1-262)
chain: MDPRLSTVRQTCCCFNVRIATTALAIYHVIMSVLLFIEHSVEVAHGKASCKLSQMGYLRIADLISSFLLITMLFIISLSLLIGVVKNREKYLLPFLSLQIMDYLLCLLTLLGSYIELPAYLKLASRSRASSSKFPLMTLQLLDFCLSILTLCSSYMEVPTYLNFKSMNHMNYLPSQEDMPHNQFIKMMIIFSIAFITVLIFKVYMFKCVWRCYRLIKCMNSVEEKRNSKMLQKVVLPSYEEALSLPSKTPEGGPAPPPYSEV
B2: the binding entry in [7] is listed as “binds”.

B3: V5-tagged LAPTM5 (in transfected HEK293 cells) (protein, UniProt Q13571 1-262)
chain: MDPRLSTVRQTCCCFNVRIATTALAIYHVIMSVLLFIEHSVEVAHGKASCKLSQMGYLRIADLISSFLLITMLFIISLSLLIGVVKNREKYLLPFLSLQIMDYLLCLLTLLGSYIELPAYLKLASRSRASSSKFPLMTLQLLDFCLSILTLCSSYMEVPTYLNFKSMNHMNYLPSQEDMPHNQFIKMMIIFSIAFITVLIFKVYMFKCVWRCYRLIKCMNSVEEKRNSKMLQKVVLPSYEEALSLPSKTPEGGPAPPPYSEV
As to B3, in [8], the binding result is “binds”.

B4: V5-tagged LAPTM5 (in M10 cells) (protein, UniProt Q13571 1-262)
chain: MDPRLSTVRQTCCCFNVRIATTALAIYHVIMSVLLFIEHSVEVAHGKASCKLSQMGYLRIADLISSFLLITMLFIISLSLLIGVVKNREKYLLPFLSLQIMDYLLCLLTLLGSYIELPAYLKLASRSRASSSKFPLMTLQLLDFCLSILTLCSSYMEVPTYLNFKSMNHMNYLPSQEDMPHNQFIKMMIIFSIAFITVLIFKVYMFKCVWRCYRLIKCMNSVEEKRNSKMLQKVVLPSYEEALSLPSKTPEGGPAPPPYSEV
Regarding B4, the results for the binding result in assay [9], in assay [7] and in assay [5] were “no binding (condition: cells not treated with bafilomycin)”, “binds” and “binds”, respectively.
